This series in a line: general procedure: Fmoc solid-phase peptide synthesis in flow; Fmoc-PAL-PEG-PS (substitution 0.16 mmol/g); TBTU/DIEA; cyclization with TBTU, BOP or HATU. Conditions: whole synthesis, scale of the general procedure 0.4 to 1.2 g resin.

Consider “cyclo[-D-Val-Arg-Gly-Asp-Asp(-εAhx-Cys-NH2)-]”, for which the outcome is reported as “The method failed to give the expected product as more than five different compounds were identified”.
For the substance “cyclo[-D-Val-Arg-Gly-Asp-Glu(-εAhx-Cys-NH2)-]”, the crude yield result is listed as “above 85%” and the isolated yield result is reported as “around 40%”.

The record behind these values is US5939383 (dated 1999).
